From patent US20050129672, “Regulatory sequences that direct gene expression to spinal motor neurons and uses thereof” (published 2005)
Construct, isoform or probe ends are uncertain for at least one entry. A negative result means that nothing was seen under these conditions.

Experiments:
Test in all cases: EMSA
HOXB3 + PBX1 = conditions: HP motifs mutated; protein translated in vitro; protein details: pSG5-derived vectors, reticulocyte lysate; label: DIG
HOXB1 + PBX1 = conditions: HP motifs mutated; protein translated in vitro; protein details: pSG5-derived vectors, reticulocyte lysate; label: DIG
HOXD9 + PBX1 = conditions: HP motifs mutated; none of the HOX proteins bound with PBX1; protein translated in vitro; protein details: pSG5-derived vectors, reticulocyte lysate; label: …
HOXC8 + PBX1 = conditions: HP motifs mutated; none of the HOX proteins bound with PBX1; protein translated in vitro; protein details: pSG5-derived vectors, reticulocyte lysate; label: …

Measured: binding result

GTACGTTAGCTCGTGCGTTGACAAAAACGAACGAGCTTTA (double strand) [Hb9 mutant 40 bp probe]
no binding: all assays above
